Where two headings read alike, the source gives them in different places. These are yes or no findings as the source states them, for the method shown. For part of these data: Binding can be weak; no strength is given. For part of these data: Tags and fused reporters may be left off the sequences shown. For part of these data: Binding seen in cells or lysates may run through a third protein.
Tests used:
[1] = target: plakophilin-3 HD ΔSL, Gal4 DNA binding domain fusion (human) (UniProt Q9Y446); experiment: two-hybrid; Matchmaker 3 (Clontech), baits in pGBKT7, preys in pGADT7, Y2H Gold yeast; growth on media lacking leucine, tryptophan and histidine
[2] = target: myc-tagged full-length plakophilin-3 ΔSL (human) (UniProt Q9Y446); experiment: co-IP; anti c-myc immunoprecipitation from lysates of A431 cells stably expressing myc-tagged plakophilin-3 constructs; immunoblot with anti stratifin (endogenous stratifin)
[3] = target: plakophilin-3 HD ΔSL, Gal4 DNA binding domain fusion (human) (UniProt Q9Y446); experiment: two-hybrid; Matchmaker 3 (Clontech), baits in pGBKT7, preys in pGADT7, Y2H Gold yeast; growth on media lacking leucine, tryptophan and histidine; remark: listed apart in the source

Protein sequences, listed by entry. Tags and fused reporters are not part of them. Lines headed by an entry give the natural chain unless they say otherwise; changes in a name come on top.
UniProt Q9Y446: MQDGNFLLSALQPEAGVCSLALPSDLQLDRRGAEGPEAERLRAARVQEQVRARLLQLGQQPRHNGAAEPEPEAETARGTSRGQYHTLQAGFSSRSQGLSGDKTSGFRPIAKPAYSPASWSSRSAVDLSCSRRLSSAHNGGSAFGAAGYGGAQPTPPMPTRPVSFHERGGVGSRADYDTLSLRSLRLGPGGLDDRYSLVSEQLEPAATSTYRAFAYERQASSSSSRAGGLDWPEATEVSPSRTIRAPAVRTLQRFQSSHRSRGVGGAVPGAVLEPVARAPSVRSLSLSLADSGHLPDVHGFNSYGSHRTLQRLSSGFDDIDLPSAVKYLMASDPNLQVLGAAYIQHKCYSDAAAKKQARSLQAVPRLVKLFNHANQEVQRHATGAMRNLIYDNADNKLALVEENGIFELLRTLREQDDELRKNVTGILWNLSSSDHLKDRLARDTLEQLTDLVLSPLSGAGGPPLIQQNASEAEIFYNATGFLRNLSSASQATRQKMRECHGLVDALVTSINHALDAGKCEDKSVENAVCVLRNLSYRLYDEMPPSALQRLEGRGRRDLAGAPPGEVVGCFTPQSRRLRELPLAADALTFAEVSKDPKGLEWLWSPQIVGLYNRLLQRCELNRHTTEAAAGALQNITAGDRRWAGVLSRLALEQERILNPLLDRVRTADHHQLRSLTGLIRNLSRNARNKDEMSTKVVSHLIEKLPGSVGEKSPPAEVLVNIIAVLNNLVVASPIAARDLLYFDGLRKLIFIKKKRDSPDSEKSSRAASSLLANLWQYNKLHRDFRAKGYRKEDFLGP
UniProt P31947: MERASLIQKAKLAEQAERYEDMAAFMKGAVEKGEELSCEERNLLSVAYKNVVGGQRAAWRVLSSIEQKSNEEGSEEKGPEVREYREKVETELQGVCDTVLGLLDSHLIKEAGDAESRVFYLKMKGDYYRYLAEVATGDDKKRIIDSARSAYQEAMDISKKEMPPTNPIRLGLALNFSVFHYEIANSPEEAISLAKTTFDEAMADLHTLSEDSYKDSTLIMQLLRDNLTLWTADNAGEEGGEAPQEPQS

With “full-length stratifin fused to the Gal4 activation domain (from UniProt P31947 1-248)” the binding [1] was “no binding”.

“stratifin (14-3-3 σ) (endogenous) (from UniProt P31947 1-248)” was tested, and the binding [2] was “no binding”.

B1: desmoplakin (amino acids 1-584) fused to the Gal4 activation domain (domain or fragment, UniProt P15924 1-584)
chain: MSCNGGSHPRINTLGRMIRAESGPDLRYEVTSGGGGTSRMYYSRRGVITDQNSDGYCQTGTMSRHQNQNTIQELLQNCSDCLMRAELIVQPELKYGDGIQLTRSRELDECFAQANDQMEILDSLIREMRQMGQPCDAYQKRLLQLQEQMRALYKAISVPRVRRASSKGGGGYTCQSGSGWDEFTKHVTSECLGWMRQQRAEMDMVAWGVDLASVEQHINSHRGIHNSIGDYRWQLDKIKADLREKSAIYQLEEEYENLLKASFERMDHLRQLQNIIQATSREIMWINDCEEEELLYDWSDKNTNIAQKQEAFSIRMSQLEVKEKELNKLKQESDQLVLNQHPASDKIEAYMDTLQTQWSWILQITKCIDVHLKENAAYFQFFEEAQSTEAYLKGLQDSIRKKYPCDKNMPLQHLLEQIKELEKEREKILEYKRQVQNLVNKSKKIVQLKPRNPDYRSNKPIILRALCDYKQDQKIVHKGDECILKDNNERSKWYVTGPGGVDMLVPSVGLIIPPPNPLAVDLSCKIEQYYEAILALWNQLYINMKSLVSWHYCMIDIEKIRAMTIAKLKTMRQEDYMKTIADLE
With B1 the binding [3] was “binds”.
